Experimental findings from article PMC3422351 (PLoS ONE, 2012) are described below.

The data set is described as follows: general procedure: Fmoc solid-phase peptide synthesis; Rink amide MBHA resin (100–200 mesh), loading 0.4–0.8 mmol/g; HBTU/DIPEA. The conditions noted are these: whole synthesis.

Some peptides are written in HELM: one residue between dots, names in brackets for other building blocks, links after the first $. Square brackets hold non-standard residues; d marks the D form. ξ: configuration not given here. Dmt = Cc1cc(O)cc(C)c1C[C@H](N)C(=O)O; ξGly(octyl) = CCCCCCCCC(N)C(=O)O

Regarding “H-[ξGly(octyl)][Dmt]PWF-NH2 (SMILES CCCCCCCCC(N)C(=O)N[C@@H](Cc1c(C)cc(O)cc1C)C(=O)N1CCC[C@H]1C(=O)N[C@@H](Cc1c[nH]c2ccccc12)C(=O)N[C@@H](Cc1ccccc1)C(N)=O)”, the isolated yield is reported as 40%.
The result for PEPTIDE1{Y.P.W.F.[am]}$$$$V2.0 reads 84%; that for PEPTIDE1{[Dmt].P.W.F.[am]}$$$$V2.0, 57%; that for “H-[ξGly(octyl)]YPWF-NH2 (SMILES CCCCCCCCC(N)C(=O)N[C@@H](Cc1ccc(O)cc1)C(=O)N1CCC[C@H]1C(=O)N[C@@H](Cc1c[nH]c2ccccc12)C(=O)N[C@@H](Cc1ccccc1)C(N)=O)”, 43%.
